No constants are given. Whether binding was seen depends on the method and setting. Binding seen in cells or lysates may run through a third protein. A result given as binding can be weak or reduced; the word gives no strength.
Molecular target: 3xmyc-LYP (human) (UniProt Q9Y2R2)
Assay: co-IP; HEK293 cells co-transfected with PSTPIP1-V5 (wild type or mutant) and 3xmyc-LYP; TNE lysis buffer with 1% NP-40; immunoprecipitation with myc antibody, immunoblot for the V5 epitope

Sequences of proteins named here, by UniProt entry; tags and fusion partners are left off. A change or cut given only in a name is not applied to a line headed by its entry.
UniProt Q9Y2R2: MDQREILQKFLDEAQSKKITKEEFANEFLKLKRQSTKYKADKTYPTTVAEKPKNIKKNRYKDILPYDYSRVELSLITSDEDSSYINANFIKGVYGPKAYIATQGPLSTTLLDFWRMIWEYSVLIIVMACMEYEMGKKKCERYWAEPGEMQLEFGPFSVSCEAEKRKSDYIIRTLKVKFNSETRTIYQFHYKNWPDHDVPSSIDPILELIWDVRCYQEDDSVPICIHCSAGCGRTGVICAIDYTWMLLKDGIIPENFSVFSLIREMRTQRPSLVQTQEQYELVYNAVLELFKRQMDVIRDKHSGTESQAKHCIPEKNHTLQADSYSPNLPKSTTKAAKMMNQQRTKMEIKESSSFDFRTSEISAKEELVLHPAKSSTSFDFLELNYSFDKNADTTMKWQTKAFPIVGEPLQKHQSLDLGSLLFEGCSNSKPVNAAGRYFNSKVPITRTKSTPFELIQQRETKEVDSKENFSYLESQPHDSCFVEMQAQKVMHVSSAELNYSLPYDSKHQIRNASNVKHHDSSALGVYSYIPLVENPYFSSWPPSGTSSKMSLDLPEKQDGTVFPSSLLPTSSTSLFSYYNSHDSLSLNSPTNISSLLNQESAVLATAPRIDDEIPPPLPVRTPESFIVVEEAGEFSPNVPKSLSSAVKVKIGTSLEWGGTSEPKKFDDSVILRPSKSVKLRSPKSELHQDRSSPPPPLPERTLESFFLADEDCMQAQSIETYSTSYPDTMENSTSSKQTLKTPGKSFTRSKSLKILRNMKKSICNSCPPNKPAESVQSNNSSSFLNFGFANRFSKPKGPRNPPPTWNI
UniProt O43586: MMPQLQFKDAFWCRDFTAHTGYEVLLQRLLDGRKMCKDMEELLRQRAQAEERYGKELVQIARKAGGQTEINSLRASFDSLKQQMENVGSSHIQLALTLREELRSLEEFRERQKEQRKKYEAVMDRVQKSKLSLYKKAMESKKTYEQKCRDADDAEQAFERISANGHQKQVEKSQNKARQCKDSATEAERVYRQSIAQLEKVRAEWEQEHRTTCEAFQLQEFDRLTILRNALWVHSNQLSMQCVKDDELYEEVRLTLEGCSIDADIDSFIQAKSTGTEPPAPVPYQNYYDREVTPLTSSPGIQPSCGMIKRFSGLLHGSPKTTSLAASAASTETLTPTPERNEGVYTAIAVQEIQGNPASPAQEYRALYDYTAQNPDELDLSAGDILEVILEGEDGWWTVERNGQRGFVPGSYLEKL

## PSTPIP1-V5 D279H (from UniProt O43586)
  binding: binds

Reference: paper PMC8840930
